These are yes or no findings as the source states them, for the method shown. Binding seen in cells or lysates may run through a third protein. A yes stands for co-enrichment or nearness to the bait. Other partners may have been found.
Biological target: His6-SUMO-His6-sP26 (Methanosarcina mazei)
Assay: affinity purification with mass spectrometry

B1: glutamine synthetase (GlnA1), endogenous in M. mazei cell extract (enzyme, UniProt Q8PY99 1-447)
chain: MVQMKKCTTKEDVLEAVKERDVKFIRTQFTDTLGIIKSWAIPAEQLEEAFENGVMFDGSSIQGFTRIEESDMKLALDPSTFRILPWRPATGAVARILGDVYLPDGNPFKGDPRYVLKTAIKEAEKMGFSMNVGPELEFFLFKLDANGNPTTELTDQGGYFDFAPLDRAQDVRRDIDYALEHMGFQIEASHHEVAPSQHEIDFRFGDVLCTADNVVTFKYVVKSIAYHKGYYASFMPKPLFGVNGSGMHSNQSLFKDGKNVFYDPDTPTKLSQDAMYYIGGLLKHIREFTAVTNPVVNSYKRLVPGYEAPVYISWSAQNRSSLIRIPATRGNGTRIELRCPDPACNPYLAFALMLRAGLEGIKNKIDPGEPTNVNIFHLSDKEREERGIRSLPADLKEAIDEMKGSKFVKEALGEHVFSHYLCAKEMEWDEYKAVVHPWELSRYLSML
**Q.** With B1 as the binder, how does the binding read?
**A.** binds
